Patent US20220089741A1 (HUABO BIOPHARM SHANGHAI, published 2022)
No constants are given. Whether binding was seen depends on the method and setting. A result given as binding can be weak or reduced; the word gives no strength.

Target: monkey PD-L1 protein (hybridoma screening) (monkey)
Assay: ELISA, hybridoma screening

B1: 36C06-D8 (antibody, V domains shown)
VH: QVQLQQSGAELVKPGASVKLSCKASGYAFTGYTIHWVKQRSGLGLEWLGWFYPGSGTLKYNEKFKDKATLTADKSSSTVYLELSRLTSEDSAVYFCARHGTGTLMAMDYWGQGTSVTVSS
VL: DVVVTQTPLSLPVSFGDQVSISCRSSQSLANSYGNTYLSWYLHKPGQSPQLLIYGISNRFSGVPDRFSGSGSGTDFTLKISTIKPEDLGMYYCLQGTHQPPTFGGGTKLEIK
notes: also called hybridoma 36C06/D8; mouse monoclonal antibody against human PD-L1
binding: binds
